Assay results: publication PMC3504387
Results are given in words; binding and its absence hold for the method and conditions named. For some of these results: Binding can be weak; no strength is given.

T1: GST–PPARα fusion protein (purified ligand binding domain of PPARα)
T1 sequence (Q07869 whole entry, species assumed, looked up): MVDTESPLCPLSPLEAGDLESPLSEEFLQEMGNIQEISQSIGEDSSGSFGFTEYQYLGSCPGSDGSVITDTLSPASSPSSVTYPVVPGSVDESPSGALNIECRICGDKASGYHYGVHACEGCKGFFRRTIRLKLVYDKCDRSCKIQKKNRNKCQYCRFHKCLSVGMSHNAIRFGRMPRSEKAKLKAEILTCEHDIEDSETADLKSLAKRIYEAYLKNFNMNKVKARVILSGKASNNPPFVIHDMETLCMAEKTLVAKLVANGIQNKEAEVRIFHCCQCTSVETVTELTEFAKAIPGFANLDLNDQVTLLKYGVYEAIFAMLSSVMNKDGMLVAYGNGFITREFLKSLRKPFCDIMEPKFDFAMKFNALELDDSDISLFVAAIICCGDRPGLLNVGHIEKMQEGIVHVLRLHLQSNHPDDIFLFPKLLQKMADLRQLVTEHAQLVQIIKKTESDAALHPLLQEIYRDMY


Columns and labels:
[1] = biological target: T1, GST–PPARα fusion protein (purified ligand binding domain of PPARα); experiment: FRET or BRET; homogeneous TR-FRET, pilot experiment: GST–PPAR ligand binding domain 20 nM (Eu-W1024-labeled anti-GST antibody), biotinylated cofactor peptide 500 nM (allophycocyanine streptavidin), in the presence of 10 μM of each PPAR ligand; 60 min at 37 °C; 50 mM HEPES pH 7.4, 25 mM NaCl, 0.1 mg/mL BSA, 1 mM dithiothreitol; both purified
[2] = biological target: T1, GST–PPARα fusion protein (purified ligand binding domain of PPARα); experiment: FRET or BRET; TR-FRET recruitment/competition assays on PPARα with TIF2_M2 and NCoR2 peptides: aleglitazar alone, RO4899100 alone, and increasing aleglitazar against RO4899100 at 100 nM; both purified
[3] = biological target: GST–PPARγ fusion protein (purified ligand binding domain of PPARγ); experiment: FRET or BRET; homogeneous TR-FRET, pilot experiment: GST–PPAR ligand binding domain 20 nM (Eu-W1024-labeled anti-GST antibody), biotinylated cofactor peptide 500 nM (allophycocyanine streptavidin), in the presence of 10 μM of each PPAR ligand; 60 min at 37 °C; 50 mM HEPES pH 7.4, 25 mM NaCl, 0.1 mg/mL BSA, 1 mM dithiothreitol; both purified

binding [1] | binding [2] | binding [3] | Binder
no binding (tested: 500 nM) |  |  | HQRVVTLAQHISEVITQDYTRHHP (biotin separated by an aminohexanoic acid spacer at the N terminus)
binds | binds |  | STHGTSLKEKHKILHRLLQDS (biotin separated by an aminohexanoic acid spacer at the N terminus) [TIF2_M2 cofactor peptide (transcriptional intermediary factor 2, motif 2)]
no binding (tested: 500 nM) |  |  | HRLITLADHICQIITQDFARNQVSS (biotin separated by an aminohexanoic acid spacer at the N terminus) [NCoR ID1 cofactor peptide (nuclear receptor co-repressor, interaction domain 1)]
no binding (tested: 500 nM) |  | no binding (tested: 500 nM) | SKGHKKLLQLLTCSSD (biotin separated by an aminohexanoic acid spacer at the N terminus) [RAC3_M1 cofactor peptide (receptor-associated co-activator 3, motif 1)]
binds |  |  | SPKKKENALLRYLLDKDDTK (biotin separated by an aminohexanoic acid spacer at the N terminus) [TIF2_M3 cofactor peptide (transcriptional intermediary factor 2, motif 3)]
